The source of these data is PMC10617209.

Chains of the proteins cited; added tags and fusions are not shown.
UniProt P08050: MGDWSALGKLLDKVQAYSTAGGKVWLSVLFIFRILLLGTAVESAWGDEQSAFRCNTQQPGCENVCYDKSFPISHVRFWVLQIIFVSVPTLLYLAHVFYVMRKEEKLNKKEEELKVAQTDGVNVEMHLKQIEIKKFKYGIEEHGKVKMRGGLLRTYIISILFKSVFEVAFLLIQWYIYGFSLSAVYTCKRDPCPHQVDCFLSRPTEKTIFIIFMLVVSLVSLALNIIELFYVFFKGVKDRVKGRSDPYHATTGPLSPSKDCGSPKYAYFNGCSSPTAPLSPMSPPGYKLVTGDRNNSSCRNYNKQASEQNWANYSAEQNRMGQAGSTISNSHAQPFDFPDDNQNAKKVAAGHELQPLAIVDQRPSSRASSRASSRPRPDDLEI
UniProt P40337: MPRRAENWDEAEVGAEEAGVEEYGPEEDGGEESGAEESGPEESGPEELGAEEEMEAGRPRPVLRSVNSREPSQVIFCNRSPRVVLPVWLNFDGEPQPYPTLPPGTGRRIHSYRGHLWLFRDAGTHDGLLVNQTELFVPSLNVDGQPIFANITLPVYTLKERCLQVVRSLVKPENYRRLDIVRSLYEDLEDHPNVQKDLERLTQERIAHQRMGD
UniProt P17302: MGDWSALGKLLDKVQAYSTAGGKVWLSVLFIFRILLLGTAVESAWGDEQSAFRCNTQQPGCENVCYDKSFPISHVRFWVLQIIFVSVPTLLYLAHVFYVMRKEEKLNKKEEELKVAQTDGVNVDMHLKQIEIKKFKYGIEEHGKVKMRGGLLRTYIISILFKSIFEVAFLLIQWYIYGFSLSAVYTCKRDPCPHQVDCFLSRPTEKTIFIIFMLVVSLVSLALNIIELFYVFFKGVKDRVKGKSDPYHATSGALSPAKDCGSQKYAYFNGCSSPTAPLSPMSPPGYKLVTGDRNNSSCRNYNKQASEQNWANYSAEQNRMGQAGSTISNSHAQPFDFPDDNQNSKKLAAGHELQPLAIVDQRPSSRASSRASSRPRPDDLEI

Experiment [1] addresses connexin 43 (Cx43), rat, endogenous in thalamic VPN (rat (endogenous in Sprague-Dawley rat thalamus)) (UniProt P08050). Nature of the experiment: co-IP; lysate of rat thalamic VPN, Sham and 2 weeks after dMCAO; antibody on Dynabeads, incubated with the extract at 4 °C for 2 h, washed thrice with PBST; Western blot. (A western blot detects proteins with antibodies after separation by electrophoresis.)

Experiment [2] concerns the target T1, mixed lineage kinase domain-like protein (MLKL), rat, endogenous in thalamic VPN (rat (endogenous in Sprague-Dawley rat thalamus)) (UniProt D3ZKP6).
T1 sequence: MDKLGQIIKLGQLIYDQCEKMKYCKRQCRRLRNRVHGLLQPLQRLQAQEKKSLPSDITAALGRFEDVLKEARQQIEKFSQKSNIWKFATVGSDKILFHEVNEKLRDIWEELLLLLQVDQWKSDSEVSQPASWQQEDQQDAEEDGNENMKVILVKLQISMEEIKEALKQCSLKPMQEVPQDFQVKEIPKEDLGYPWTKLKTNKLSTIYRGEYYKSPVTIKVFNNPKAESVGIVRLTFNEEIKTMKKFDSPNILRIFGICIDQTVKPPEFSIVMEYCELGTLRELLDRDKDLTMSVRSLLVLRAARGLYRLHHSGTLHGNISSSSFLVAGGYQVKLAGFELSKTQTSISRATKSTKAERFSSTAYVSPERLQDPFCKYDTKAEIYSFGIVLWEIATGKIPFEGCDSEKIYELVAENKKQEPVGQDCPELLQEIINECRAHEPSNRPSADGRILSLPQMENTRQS
The experiment in a line: Western blot of multimers; MLKL and pMLKL multimers on immunoblots of rat VPN extract after dMCAO.

The target in experiment [3] is human Von Hippel-Lindau (VHL), coding sequence in plasmid CMV-MCS-V5-SV40-neomycin (human) (UniProt P40337). Nature of the experiment: co-IP; lysate of SH-SY5Y cells transfected with plasmids (MLKL WT or S454A, Cx43, VHL), without or with TSZ for 10 h; antibody on Dynabeads, 4 °C for 2 h, washed thrice with PBST; Western blot.
Experiment [4] concerns the target human connexin 43 (Cx43, GJA1) (WT), full-length coding sequence in plasmid CMV-MCS-Myc-SV40-neomycin (human) (UniProt P17302). The experiment is described as above.

Positions count from the first letter of the chain named. Names and notes keep the numbering of the source. Results are given in words; binding and its absence hold for the method and conditions named. For part of these data: In cells and extracts the contact can be indirect. Some results given as binding are weak or reduced against the parent protein; the word gives no strength. For part of these data: Sequences can lack the tags named with a protein.

B1: mixed lineage kinase domain-like protein (MLKL), rat, endogenous in thalamic VPN (protein, UniProt D3ZKP6 1-462)
chain: T1 sequence
With B1, the binding result in experiment [1] and in experiment [2] was “binds” throughout.

B2: human MLKL (WT), full-length coding sequence in plasmid CMV-MCS-3FLAG-SV40-neomycin (protein, UniProt Q8NB16 1-471)
chain: MENLKHIITLGQVIHKRCEEMKYCKKQCRRLGHRVLGLIKPLEMLQDQGKRSVPSEKLTTAMNRFKAALEEANGEIEKFSNRSNICRFLTASQDKILFKDVNRKLSDVWKELSLLLQVEQRMPVSPISQGASWAQEDQQDADEDRRAFQMLRRDNEKIEASLRRLEINMKEIKETLRQYLPPKCMQEIPQEQIKEIKKEQLSGSPWILLRENEVSTLYKGEYHRAPVAIKVFKKLQAGSIAIVRQTFNKEIKTMKKFESPNILRIFGICIDETVTPPQFSIVMEYCELGTLRELLDREKDLTLGKRMVLVLGAARGLYRLHHSEAPELHGKIRSSNFLVTQGYQVKLAGFELRKTQTSMSLGTTREKTDRVKSTAYLSPQELEDVFYQYDVKSEIYSFGIVLWEIATGDIPFQGCNSEKIRKLVAVKRQQEPLGEDCPSELREIIDECRAHDPSVRPSVDEILKKLSTFSK
B2: the binding entry in experiment [3] and in experiment [4] was “binds” throughout.

B3: human MLKL (S454A), full-length coding sequence in plasmid CMV-MCS-3FLAG-SV40-neomycin (protein, UniProt Q8NB16 1-471)
chain: B2 chain with S454A
Consider B3, for which the binding entry in experiment [3] and in experiment [4] was “binds” each time.
